Source: PubChem BioAssay AID288 (DTP/NCI, 2004)
The list does not hold the whole screen: its compounds were picked by chemical class. Not every dose and run of a compound is shown. T/C gives the treated animals as a percentage of the vehicle group. Schedule codes are those of the source, read here as Q, the interval in days (D) or hours (H), X, the number of doses. Some T/C values are followed by the survivors on the day toxicity was checked; without a count or a note in brackets, all were alive then. Some doses have a count of surviving animals in place of a T/C: the source files T/C as zero there, which appears to mark a toxic dose or a test without result, not a measured value. Counts of survivors are from the toxicity check, whose day is not always given; animals may have died later.

Test system: BDF1 mice, M5076 sarcoma s.c., survival/tumor T/C
Test: NCI In Vivo Anticancer Drug Screen. Data for tumor model Sarcoma M5076 (subcutaneous) in B6D2F1 (BDF1) mice
Details: schedule: Q02DX011 (ip), vehicle: Klucel (hydroxypropylcellulose) (HPC), higher T/C = larger tumour; for T/C: evaluated on day 22
Description: The antitumor activity of compounds was measured in mice bearing transplantable tumors. Survival or tumor size were measured and the results are expressed as the measurement made in the treated group (T) divided by the measurement made in the vehicle treated control group (C). The tumor model used in this assay is Sarcoma M5076 (subcutaneous) in B6D2F1 (BDF1) mice

[1] = T/C endpoint: mean tumor weight, dose: 50.0 mg/kg/injection

## NC(=O)c1[nH]cnc1/N=N\N(CCCl)CCCl
T/C endpoint: mean tumor weight, dose: 12.5 mg/kg/injection
  T/C: 55 % of control [9 of 10 alive on day 22]
T/C endpoint: mean tumor weight, dose: 25.0 mg/kg/injection
  T/C: 46 % of control
[1]
  T/C: 3 % of control
T/C endpoint: median tumor weight (est.), dose: 12.5 mg/kg/injection
  T/C: 80 % of control [9 of 10 alive on day 22]
T/C endpoint: median tumor weight (est.), dose: 25.0 mg/kg/injection
  T/C: 54 % of control

## COc1cc2c(c3oc4cccc(O)c4c(=O)c13)[C@@H]1C=CO[C@@H]1O2
[1]
  T/C: 86 % of control
T/C endpoint: mean tumor weight, dose: 100.0 mg/kg/injection
  T/C: 26 % of control
T/C endpoint: mean tumor weight, dose: 200.0 mg/kg/injection
  survivor count: 0 of 10 on day 22
